From PubChem BioAssay AID540276 (National Center for Advancing Translational Sciences (NCATS), 2011)
Out of some 300,000 compounds screened, about 5,400 (1.8%) were called active. The shares of active, inactive and inconclusive entries below differ from those in the screen. The call rests on the fitted dose curve; tested in HEK293 cells. Potencies of inconclusive entries are doubtful fits and often do not repeat.

Assay: qHTS for inhibitors of binding or entry into cells for Marburg Virus
Details: Marburg virus pseudotyped entry inhibition, cell reporter; series mostly up to 37.8 µM
Potency means the concentration at half of the fitted maximal effect.

SMILES	Potency
CCn1ncc(Br)c1C(=O)Nc1cccc(C(C)=O)c1	inconclusive: 3.16 µM [activator, single point]
Cc1c(NC(=O)COC(=O)c2c3c(nc4ccccc24)CCCC3)c(=O)n(-c2ccccc2)n1C	inconclusive: 3.16 µM [activator, single point]
COc1cccc(-c2nc(CS(=O)(=O)CC(=O)Nc3ccc(C)c(Cl)c3)c(C)o2)c1	inconclusive: 1.58 µM [inhibitor, partial curve, poor fit]
NCC1OC(O[C@H]2[C@H](O)[C@@H](OC3C(O)C(N)CC(N)C3OC3OC(CO)C(O)C(O)C3N)O[C@@H]2CO)C(N)C(O)C1O (some centres not stated)	inactive
O=C(CSc1nnc(-c2ccc(F)cc2)n1-c1ccccc1)NCCN1C(=O)CSC1=O	inconclusive: 0.316 µM [inhibitor, partial curve, poor fit]
CCOc1ccccc1NC(=O)CSc1nnc(-c2ccco2)n1Cc1ccco1	inactive
O=C(CCN1Cc2ccccc2C1)c1ccc2c(c1)OCCO2	inactive
COc1cccc(-c2nc(CS(=O)(=O)CC(=O)NCCc3cc(OC)ccc3OC)c(C)o2)c1	inconclusive: 11.2 µM [inhibitor, partial curve, poor fit]
COc1cccc(CNC(=O)c2ccc(NC(=O)CC3SC(N4CCCC4)=NC3=O)cc2)c1 (configuration not stated)	inconclusive: 12.6 µM [activator, single point]
COc1ccccc1/C=C1/SC(=O)N(CCC(=O)Nc2ccc(S(=O)(=O)Nc3nccs3)cc2)C1=O	inactive
Cc1ccc(/C=C/C(=O)OCC(=O)Nc2ccccc2Sc2ccccc2)cc1	inconclusive: 15.8 µM [activator, single point]
Cc1cc(C(=O)CN2C(=O)c3cccc(N)c3C2=O)c(C)n1Cc1cccs1	inconclusive: 12.6 µM [inhibitor, single point]
O=C(Cc1ccc(F)cc1)NC1CCCC1	inconclusive: 10 µM [activator, partial curve, poor fit]
CCn1nnc(-c2ccccc2NS(=O)(=O)c2ccc(C(=O)OC)cc2)n1	inactive
O=C(CCl)Nc1cccc(Oc2ccccc2)c1	inconclusive: 35.5 µM [inhibitor, single point]
O=C(/C=C/c1cn(-c2ccccc2)nc1-c1cccnc1)NCCN1CCOCC1	inconclusive: 5.01 µM [activator, single point]
COc1cc(NC(=O)c2cccc(COCC(F)(F)C(F)F)c2)cc(OC)c1OC	inconclusive: 0.126 µM [inhibitor, full curve, poor fit]

Looked up above:
Potency, CCn1nnc(-c2ccccc2NS(=O)(=O)c2ccc(C(=O)OC)cc2)n1 is entered as inactive
Potency, O=C(/C=C/c1cn(-c2ccccc2)nc1-c1cccnc1)NCCN1CCOCC1 is entered as inconclusive: 5.01 µM [activator, single point]
